Laboratory results published in paper PMC6538723.
Results are given in words; binding and its absence hold for the method and conditions named. Binding seen in cells or lysates may run through a third protein. Some binding calls cover weakened binding; strength is not graded here. Blank lines part the entries; values can stand above or below the substance they belong to.

Columns and labels:
HA-p53 [1] = biological target: HA-p53 (UniProt P04637); experiment: co-IP; overexpressed proteins in Hek293 cells co-transfected with HA-p53 and Myc-Zh10 (or Myc-mtZh10); lysates precipitated with the indicated antibody, WB
[2] = biological target: p53, endogenous wild-type protein in Beas-2b cells (human (endogenous in Beas-2b)) (UniProt P04637); experiment: co-IP; endogenous proteins in Beas-2b cells; lysates precipitated with the indicated antibody, immune complexes analysed by WB
HA-p53 [3] = biological target: HA-p53 (UniProt P04637); experiment: co-IP; Hek293 cells co-transfected with 3 ug HA-p53, 3 ug Myc-MDM2C464A and increasing amounts (0, 3, 6, 9 ug) of EGFP-ZCCHC10 plasmid; 24 h post transfection; IP with rabbit anti-HA, WB with anti-HA, anti-Myc and anti-EGFP

binding (HA-p53 [1]): binds
Substance: Myc-ZCCHC10 (from UniProt Q8TBK6-1 1-192)

binding [2]: binds
Substance: ZCCHC10 (zinc finger CCHC-type containing 10), endogenous protein in Beas-2b cells (from UniProt Q8TBK6-1 1-192)

binding (HA-p53 [3]): binds
Substance: EGFP-ZCCHC10 (from UniProt Q8TBK6-1 1-192)
